The source of these data is patent US20020119165A1 (University of Pennsylvania, published 2002).

Protein sequences, listed by entry. Tags and fused reporters are not part of them. Residues count along the entry.
UniProt Q92956, residues 39-200: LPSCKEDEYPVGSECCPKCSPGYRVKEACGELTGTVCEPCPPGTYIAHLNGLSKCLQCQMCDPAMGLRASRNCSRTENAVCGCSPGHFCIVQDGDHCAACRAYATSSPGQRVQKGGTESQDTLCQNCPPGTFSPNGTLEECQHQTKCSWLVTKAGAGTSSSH

The assay deals with HveA(200t) (UniProt Q92956). The experiment in a line: ELISA, HveA immobilized, constant LT-alpha with various amounts of gD, AG9 detection. (In general: In an ELISA, binding on a coated surface is turned into a signal by an enzyme label.)

Results are given in words; binding and its absence hold for the method and conditions named. Some results given as binding are weak or reduced against the parent protein; the word gives no strength.

B1: lymphotoxin-alpha (LT-alpha) (ligand, UniProt P01374 35-205, looked up)
chain: LPGVGLTPSAAQTARQHPKMHLAHSTLKPAAHLIGDPSKQNSLLWRANTDRAFLQDGFSLSNNSLLVPTSGIYFVYSQVVFSGKAYSPKATSSPLYLAHEVQLFSSQYPFHVPLLSSQKMVYPGLQEPWLHSMYHGAAFQLTQGDQLSTHTDGIPHLVLSPSTVFFGAFAL
Take B1: the binding entry is on record as “binds”.
